System: HepG2 hepatocytes
Test: Inhibition of cholesterol synthesis in HepG2 hepatocytes (secreted cholesterol and cholesteryl ester, AmplexRed)
Type: cell-based
Conditions: Homo sapiens, 0.014 mg/ml Atorvastatin, as contained in 0.2 mg/ml Lipitor tablet, FIG. 1, read-out: inhibitory effect (cholesterol synthesis/release)
Description: HepG2 hepatocytes were used as a model to study the inhibition of cholesterol synthesis according to the procedures described in Dashti, N., et al., J. Lipid Res. 28:423-436 (1987) and Mohammadi, A., et al., Arterioscler. Thromb. Vasc. Biol., […]:783-793 (1998). […] Amounts of secreted cholesterol and cholesteryl ester are measured from acetate fed hepatocyte culture media using a fluorescent indicator AmplexRed.
The same cholesterol inhibition model used in Example I was used to determine the cholesterol synthesis inhibition of theaflavins, including theaflavin and gallate esters of theaflavin.

SMILES: CC(C)c1c(C(=O)Nc2ccccc2)c(-c2ccccc2)c(-c2ccc(F)cc2)n1CC[C@@H](O)C[C@@H](O)CC(=O)O [Atorvastatin, reference compound]
- inhibition at 14 µg/mL: ~30%

— US20040097432A1, “Method of reducing cholesterol” (ACCESS BUSINESS GROUP INTERNATIONAL LLC., priority 2002, published 2004)
